A: 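Enzyme assay of the cytosolic lysyl-tRNA synthetase in 384-well plates, read by luminescence. Target: Lysine-tRNA ligase, Plasmodium falciparum 3D7 (UniProt Q8IDJ8). Compounds at 30 µM. Direction is inferred from only a few compounds that gave an IC50; most scored high, so higher reads as stronger inhibition. About 69,000 compounds were tested under these conditions; 0.071% (about 49) showed 50% or more at least once.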
B: 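Histidine-tRNA ligase, Trypanosoma cruzi CL Brener (UniProt Q4DA54). Enzyme assay of histidyl-tRNA synthetase; the read-out is not stated. Concentration: 30 µM. Direction is inferred from retests: higher values go with stronger inhibition. Size under these conditions: about 69,000 compounds, about 31 of them at 50% or above in at least one test.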
C: 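Cell assay of Leishmania donovani living inside macrophages; the read-out is not stated. Concentration: 30 µM. Higher reads as stronger inhibition (inferred: compounds with an IC50 in retests scored well above the rest). Of about 69,000 compounds tested this way, about 1,000 (1.5%) reached 50% or more in at least one test.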
D: 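Enzyme assay of the thioesterase domain of polyketide synthase 13; the read-out is not stated. Target: Polyketide synthase Pks13, Mycobacterium tuberculosis (UniProt I6X8D2). Tested at 30 µM. The record gives no direction; the compounds picked for IC50 retests had high values, so higher reads as stronger inhibition. Size under these conditions: about 67,000 compounds, about 300 of them at 50% or above in at least one test.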

Chains of the proteins cited; added tags and fusions are not shown. Residues count along the entry.
UniProt Q8IDJ8, 1-583: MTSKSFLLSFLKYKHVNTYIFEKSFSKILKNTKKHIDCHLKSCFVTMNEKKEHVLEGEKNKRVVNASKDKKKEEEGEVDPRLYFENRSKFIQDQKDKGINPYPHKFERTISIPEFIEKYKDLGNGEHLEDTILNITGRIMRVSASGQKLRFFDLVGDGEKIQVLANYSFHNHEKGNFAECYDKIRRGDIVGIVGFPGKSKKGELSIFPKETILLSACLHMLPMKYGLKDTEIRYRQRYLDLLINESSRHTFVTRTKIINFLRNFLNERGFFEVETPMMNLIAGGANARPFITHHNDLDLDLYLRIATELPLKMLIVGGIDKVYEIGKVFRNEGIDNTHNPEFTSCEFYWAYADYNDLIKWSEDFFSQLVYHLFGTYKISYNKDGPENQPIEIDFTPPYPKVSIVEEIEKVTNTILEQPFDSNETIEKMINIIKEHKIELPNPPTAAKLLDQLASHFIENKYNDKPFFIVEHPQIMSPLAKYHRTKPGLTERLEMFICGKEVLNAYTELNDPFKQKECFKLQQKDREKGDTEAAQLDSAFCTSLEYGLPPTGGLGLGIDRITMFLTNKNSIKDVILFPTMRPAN
UniProt Q4DA54, 1-478: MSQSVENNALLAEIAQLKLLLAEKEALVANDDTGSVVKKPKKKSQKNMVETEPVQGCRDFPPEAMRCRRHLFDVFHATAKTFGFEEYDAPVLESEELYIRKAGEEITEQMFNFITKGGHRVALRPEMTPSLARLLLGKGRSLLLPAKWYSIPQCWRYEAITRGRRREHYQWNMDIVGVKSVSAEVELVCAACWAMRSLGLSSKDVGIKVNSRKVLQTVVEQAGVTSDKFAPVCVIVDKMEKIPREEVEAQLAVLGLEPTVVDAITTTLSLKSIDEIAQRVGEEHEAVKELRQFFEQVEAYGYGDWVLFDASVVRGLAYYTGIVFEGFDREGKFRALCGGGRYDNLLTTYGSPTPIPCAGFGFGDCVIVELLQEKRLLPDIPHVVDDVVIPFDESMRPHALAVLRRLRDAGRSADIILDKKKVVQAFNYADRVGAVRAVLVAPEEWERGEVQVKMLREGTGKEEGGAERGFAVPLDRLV
UniProt I6X8D2, whole entry: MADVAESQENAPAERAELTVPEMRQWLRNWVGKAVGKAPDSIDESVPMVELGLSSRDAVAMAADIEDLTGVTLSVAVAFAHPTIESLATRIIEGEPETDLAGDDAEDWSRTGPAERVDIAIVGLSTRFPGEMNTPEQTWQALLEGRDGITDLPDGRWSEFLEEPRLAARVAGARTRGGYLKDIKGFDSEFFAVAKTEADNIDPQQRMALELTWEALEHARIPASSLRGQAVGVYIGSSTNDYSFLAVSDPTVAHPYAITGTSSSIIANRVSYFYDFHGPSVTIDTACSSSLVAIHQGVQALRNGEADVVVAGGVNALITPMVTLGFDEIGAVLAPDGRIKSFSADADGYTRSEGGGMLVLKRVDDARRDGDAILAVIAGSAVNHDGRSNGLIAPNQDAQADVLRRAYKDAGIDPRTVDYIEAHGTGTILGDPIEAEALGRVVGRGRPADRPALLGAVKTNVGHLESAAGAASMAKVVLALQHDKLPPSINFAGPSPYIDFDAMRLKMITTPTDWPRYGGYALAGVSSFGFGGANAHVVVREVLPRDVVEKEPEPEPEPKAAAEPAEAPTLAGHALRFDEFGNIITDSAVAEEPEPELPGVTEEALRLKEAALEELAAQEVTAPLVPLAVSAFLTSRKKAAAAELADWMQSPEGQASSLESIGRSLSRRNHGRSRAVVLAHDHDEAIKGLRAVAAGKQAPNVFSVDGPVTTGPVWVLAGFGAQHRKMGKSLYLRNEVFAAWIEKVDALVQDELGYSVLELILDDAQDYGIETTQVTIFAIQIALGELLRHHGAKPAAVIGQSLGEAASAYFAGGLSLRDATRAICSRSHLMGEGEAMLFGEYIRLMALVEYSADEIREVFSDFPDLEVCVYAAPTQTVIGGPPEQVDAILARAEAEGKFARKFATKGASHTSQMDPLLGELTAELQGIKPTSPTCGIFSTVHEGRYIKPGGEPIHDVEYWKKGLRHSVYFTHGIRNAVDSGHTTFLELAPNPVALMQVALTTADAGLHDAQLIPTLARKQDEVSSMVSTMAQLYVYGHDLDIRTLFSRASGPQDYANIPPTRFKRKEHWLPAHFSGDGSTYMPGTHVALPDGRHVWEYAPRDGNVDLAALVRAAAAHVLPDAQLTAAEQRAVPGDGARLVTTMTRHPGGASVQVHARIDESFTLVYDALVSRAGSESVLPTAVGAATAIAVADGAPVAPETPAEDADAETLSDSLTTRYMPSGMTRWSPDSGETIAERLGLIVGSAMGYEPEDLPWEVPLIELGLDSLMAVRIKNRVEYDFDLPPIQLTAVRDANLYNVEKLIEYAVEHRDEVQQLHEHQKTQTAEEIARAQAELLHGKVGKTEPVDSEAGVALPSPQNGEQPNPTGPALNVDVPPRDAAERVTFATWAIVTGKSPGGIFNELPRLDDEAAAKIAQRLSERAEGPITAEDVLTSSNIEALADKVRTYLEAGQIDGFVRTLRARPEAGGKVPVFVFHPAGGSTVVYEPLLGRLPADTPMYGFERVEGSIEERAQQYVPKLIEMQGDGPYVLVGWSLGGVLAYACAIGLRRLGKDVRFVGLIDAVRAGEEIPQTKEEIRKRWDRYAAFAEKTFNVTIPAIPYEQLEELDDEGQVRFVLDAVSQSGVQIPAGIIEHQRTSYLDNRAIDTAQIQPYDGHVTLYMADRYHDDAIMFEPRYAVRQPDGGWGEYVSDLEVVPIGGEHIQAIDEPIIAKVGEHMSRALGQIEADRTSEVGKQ

The filed quantity is “Percent Effect” (%). How 0% and 100% were set is not recorded. Most values in the screen are low, and negative values occur. This is an unselected part of the compounds tested.

{"compound": "CC(C)Nc1nc(O)cc(C2CC(=O)N(Cc3ccccn3)C2)n1", "stereo": "stereo not drawn", "A": 1.14, "B": 10.65, "D": -13.59}
{"compound": "CN(C)CCN1CCC2(CCN(C(=O)c3cccc(F)c3)CC2)C1=O", "A": -1.617, "B": 2.404, "D": -33.13}
{"compound": "Cn1cc(CN(Cc2cccc(-n3cccn3)c2)C2CC2)cn1", "A": 5.542, "B": -1.22, "C": -52.38, "D": -2.265}
{"compound": "Cc1cc(C)cc(C(=O)Nc2ccc(CC3CC(=O)NC3=O)cc2)c1", "stereo": "stereo not drawn", "A": 6.816, "B": 8.247, "C": 19.8, "D": -12.45}
{"compound": "CS(=O)(=O)N1C[C@H](C(=O)Nc2cccnc2)C[C@H]2OCC[C@H]21", "A": 5.259, "B": 1.266, "D": -20.52}
{"compound": "NC(=O)CC1CCCN(c2cncc(OCc3ccccc3)n2)C1", "stereo": "stereo not drawn", "A": -3.395, "B": 8.04, "C": -31.63, "D": -1.592}
{"compound": "CCc1cnc(CN(C)C2CCN(CC(=O)Nc3cc(C)on3)C2)o1", "stereo": "stereo not drawn", "A": 0.4078, "B": 2.857, "C": 14.42, "D": -4.102}
{"compound": "O=C(c1cnccn1)N1C[C@@H]2OCC(=O)N(CC3CCCCC3)[C@@H]2C1", "A": 8.82, "B": 2.488, "D": -29.31}
{"compound": "O=C(CNc1cc(F)ccc1OC(F)F)NCC(F)(F)F", "A": 0.8111, "B": 2.062, "C": -13.33, "D": -8.247}
{"compound": "[H][C@@]12C[C@H](C)O[C@@]1([H])CCN(C(=O)c1ccncn1)C2", "C": -0.16}
{"compound": "CCc1[nH]ncc1C(=O)N1CCCN(Cc2cnn(C(C)C)c2)CC1", "A": 1.806, "B": 3.008, "C": 19.49, "D": -27.16}
{"compound": "COc1ccc(-c2cnc(N(C)C)nc2C2CNCCO2)cc1.Cl", "stereo": "stereo not drawn", "C": 29.04}
{"compound": "CCOC(=O)CSc1nnc(C(N)CC(C)C)o1.Cl", "stereo": "stereo not drawn", "C": -15.68}
{"compound": "COc1ccc(F)c(F)c1CN1CC(=O)N(c2ccccc2C)CC1C", "stereo": "stereo not drawn", "A": 11.84, "B": 10.5, "C": 7.454, "D": -15.25}
{"compound": "CN1CCC/C1=N\\S(=O)(=O)c1ccc(NC(=O)c2ccsc2)cc1", "A": 1.085, "B": -0.2849, "C": -28.21, "D": -22.77}
{"compound": "COCC(=O)N1CCC(c2nc3ccc(-c4ccncc4)cn3n2)CC1", "A": 8.347, "B": -0.4975, "D": -12.44}
{"compound": "CNc1ncc(CN(C)C(=O)c2cccc(-n3cccn3)c2)cn1", "A": 0.2715, "B": 1.754, "C": 14.03, "D": -5.612}
{"compound": "O=C(O)C(F)(F)F.[H][C@]12CCC[C@@]1(COc1ccccn1)CN(C(=O)c1ncccn1)C2", "C": 13.3}
{"compound": "CCN(C(=O)CN1CCCC1c1cccs1)c1ccccc1C", "stereo": "stereo not drawn", "A": 3.947, "B": 17.86, "C": -9.418, "D": -49.51}
{"compound": "O=C(c1ccc(-n2cccn2)nc1)N1CCC(Nc2cccnn2)CC1", "A": 0.922, "B": -1.132, "C": -2.186, "D": -18.19}
{"compound": "Cc1noc(C)c1CN(C)Cc1csc(-c2ccc(F)cc2)n1", "A": 7.466, "B": 2.463, "C": 30.88, "D": -32.93}

Some entries from above, unchanged:

- CCOC(=O)CSc1nnc(C(N)CC(C)C)o1.Cl (stereo not drawn) | C: -15.68%
- COc1ccc(-c2cnc(N(C)C)nc2C2CNCCO2)cc1.Cl (stereo not drawn) | C: 29.04%
- Cn1cc(CN(Cc2cccc(-n3cccn3)c2)C2CC2)cn1 | A: 5.542%; B: -1.22%; C: -52.38%; D: -2.265%

Data taken from ChEMBL document CHEMBL3988442, “University of Dundee, Small-Polar-MMV Screening Library” (2021).